Assay results: paper PMC7392002
These are yes or no findings as the source states them, for the method shown. Binding seen in cells or lysates may run through a third protein. Some binding calls cover weakened binding; strength is not graded here. Sequences can lack the tags named with a protein.

The chains behind the UniProt entries cited, without tags or fusion partners.
UniProt Q86TM6: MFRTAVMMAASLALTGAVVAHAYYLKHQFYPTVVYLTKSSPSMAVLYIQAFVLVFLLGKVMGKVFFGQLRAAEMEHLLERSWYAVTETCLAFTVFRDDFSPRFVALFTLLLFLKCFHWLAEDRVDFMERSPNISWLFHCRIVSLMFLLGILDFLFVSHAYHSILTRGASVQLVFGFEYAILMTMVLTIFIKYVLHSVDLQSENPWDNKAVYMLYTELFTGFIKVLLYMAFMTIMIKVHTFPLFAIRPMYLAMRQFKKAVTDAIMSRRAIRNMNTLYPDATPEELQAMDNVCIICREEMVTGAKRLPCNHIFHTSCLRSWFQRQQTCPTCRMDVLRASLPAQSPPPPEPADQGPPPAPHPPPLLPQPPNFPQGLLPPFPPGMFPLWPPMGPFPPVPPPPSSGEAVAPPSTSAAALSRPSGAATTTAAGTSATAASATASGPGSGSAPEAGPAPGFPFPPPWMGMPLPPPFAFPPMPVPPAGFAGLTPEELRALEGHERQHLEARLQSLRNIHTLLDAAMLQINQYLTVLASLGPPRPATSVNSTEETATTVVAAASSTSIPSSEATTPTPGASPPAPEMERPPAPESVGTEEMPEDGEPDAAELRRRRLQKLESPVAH

Molecular target: T1, Flag-tagged heat shock protein A12A (HSPA12A) (UniProt O43301)
T1 sequence: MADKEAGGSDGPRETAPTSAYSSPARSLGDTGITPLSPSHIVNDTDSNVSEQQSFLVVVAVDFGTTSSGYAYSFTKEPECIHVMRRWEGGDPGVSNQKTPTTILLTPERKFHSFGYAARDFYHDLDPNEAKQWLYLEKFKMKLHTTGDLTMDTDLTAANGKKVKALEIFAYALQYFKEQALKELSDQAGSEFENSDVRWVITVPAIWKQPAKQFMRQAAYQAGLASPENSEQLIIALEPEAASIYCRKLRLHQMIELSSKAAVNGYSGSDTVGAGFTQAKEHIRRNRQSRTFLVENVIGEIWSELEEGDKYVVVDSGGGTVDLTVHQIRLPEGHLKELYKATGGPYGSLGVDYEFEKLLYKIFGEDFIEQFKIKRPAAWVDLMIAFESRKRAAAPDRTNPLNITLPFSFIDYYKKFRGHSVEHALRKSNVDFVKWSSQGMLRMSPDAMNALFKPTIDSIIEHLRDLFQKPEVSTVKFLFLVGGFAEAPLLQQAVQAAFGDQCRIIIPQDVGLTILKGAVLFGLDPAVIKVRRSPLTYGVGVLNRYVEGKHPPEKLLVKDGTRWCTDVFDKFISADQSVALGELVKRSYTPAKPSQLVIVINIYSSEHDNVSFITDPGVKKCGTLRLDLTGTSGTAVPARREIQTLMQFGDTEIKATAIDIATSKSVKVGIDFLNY
Assay: co-IP; Caki-1 or 786O cells overexpressing Flag-tagged HSPA12A for 48 h; 0.7 mg protein precipitated with anti-Flag antibodies; blots with anti-CD147, anti-HRD1 and anti-HSPA12A; IgG precipitates as negative controls

With “HMG-CoA reductase degradation protein 1 (HRD1) (from UniProt Q86TM6 1-617) (enzyme)” the binding was “binds”.
